Only a part is listed here, and it is no random draw. The calls were merged from several studies; some rest on single wells. The list shows a part of the results.
Legend:
Conditions in all cases: stereoisomer not certain
OR6M1 (Homo sapiens) = biological target: T1, OR6M1 (Homo sapiens) (UniProt Q8NGM8)
T1 sequence (whole entry): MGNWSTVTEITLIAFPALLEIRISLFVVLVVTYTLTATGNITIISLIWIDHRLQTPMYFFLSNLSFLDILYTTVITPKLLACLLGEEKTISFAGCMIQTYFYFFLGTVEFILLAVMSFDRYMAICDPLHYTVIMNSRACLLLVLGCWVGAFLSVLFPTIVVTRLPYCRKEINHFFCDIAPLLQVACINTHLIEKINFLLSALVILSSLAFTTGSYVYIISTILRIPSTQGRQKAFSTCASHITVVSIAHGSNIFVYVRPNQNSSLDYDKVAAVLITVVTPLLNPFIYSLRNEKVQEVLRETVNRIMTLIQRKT
Method in brief: (§1)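 Whether a receptor–molecule pair is responsive (active) rests on the original authors' judgment that its measured signal was statistically different from baseline. Pairs without that judgment are non-responsive (inactive). Sources used varied assay methods, commonly transient luciferase assays in mammalian cell lines.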

OR6N1 = test system: T2, OR6N1
T2 sequence (whole entry): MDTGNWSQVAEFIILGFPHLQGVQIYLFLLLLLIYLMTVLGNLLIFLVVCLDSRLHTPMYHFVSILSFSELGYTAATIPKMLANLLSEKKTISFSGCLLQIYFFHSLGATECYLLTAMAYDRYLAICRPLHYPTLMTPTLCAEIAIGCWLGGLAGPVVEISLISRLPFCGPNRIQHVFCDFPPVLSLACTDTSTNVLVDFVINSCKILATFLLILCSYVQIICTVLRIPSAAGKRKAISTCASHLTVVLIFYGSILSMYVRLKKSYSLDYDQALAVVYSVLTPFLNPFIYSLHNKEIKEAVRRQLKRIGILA
Method in brief: as §1

OR6N2 (Homo sapiens) = biological target: T3, OR6N2 (Homo sapiens) (UniProt Q8NGY6)
T3 sequence (whole entry): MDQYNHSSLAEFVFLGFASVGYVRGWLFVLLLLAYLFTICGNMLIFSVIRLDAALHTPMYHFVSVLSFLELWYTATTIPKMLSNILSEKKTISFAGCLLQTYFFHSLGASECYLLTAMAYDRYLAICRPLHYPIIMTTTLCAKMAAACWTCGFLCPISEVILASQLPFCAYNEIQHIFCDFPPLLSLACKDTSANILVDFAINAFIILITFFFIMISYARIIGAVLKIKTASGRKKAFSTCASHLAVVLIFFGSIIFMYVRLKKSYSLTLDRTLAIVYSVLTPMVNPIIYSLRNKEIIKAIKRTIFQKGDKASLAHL
Method in brief: as §1

OR6P1 (Homo sapiens) = biological target: T4, OR6P1 (Homo sapiens) (UniProt Q8NGX9)
T4 sequence (whole entry): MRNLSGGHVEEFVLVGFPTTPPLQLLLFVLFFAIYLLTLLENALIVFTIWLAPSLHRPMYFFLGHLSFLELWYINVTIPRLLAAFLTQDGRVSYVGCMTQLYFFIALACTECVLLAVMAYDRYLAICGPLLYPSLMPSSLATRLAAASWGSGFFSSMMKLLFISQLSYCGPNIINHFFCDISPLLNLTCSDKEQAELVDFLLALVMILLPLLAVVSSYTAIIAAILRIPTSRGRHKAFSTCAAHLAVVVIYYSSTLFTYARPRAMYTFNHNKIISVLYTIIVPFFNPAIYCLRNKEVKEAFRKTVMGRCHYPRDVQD
Method in brief: as §1

OR6Q1 (Homo sapiens) = biological target: T5, OR6Q1 (Homo sapiens) (UniProt Q8NGQ2)
T5 sequence (whole entry): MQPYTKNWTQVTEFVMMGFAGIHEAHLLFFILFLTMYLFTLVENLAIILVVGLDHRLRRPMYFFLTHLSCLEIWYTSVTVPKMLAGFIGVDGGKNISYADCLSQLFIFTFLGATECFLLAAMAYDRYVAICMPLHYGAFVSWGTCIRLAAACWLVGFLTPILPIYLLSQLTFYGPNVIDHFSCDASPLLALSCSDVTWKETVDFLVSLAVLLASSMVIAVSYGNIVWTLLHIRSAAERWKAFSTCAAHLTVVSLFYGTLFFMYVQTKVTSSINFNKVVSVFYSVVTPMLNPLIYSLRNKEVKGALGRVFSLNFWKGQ
Method in brief: as §1

OR6S1 = test system: T6, OR6S1
T6 sequence (whole entry): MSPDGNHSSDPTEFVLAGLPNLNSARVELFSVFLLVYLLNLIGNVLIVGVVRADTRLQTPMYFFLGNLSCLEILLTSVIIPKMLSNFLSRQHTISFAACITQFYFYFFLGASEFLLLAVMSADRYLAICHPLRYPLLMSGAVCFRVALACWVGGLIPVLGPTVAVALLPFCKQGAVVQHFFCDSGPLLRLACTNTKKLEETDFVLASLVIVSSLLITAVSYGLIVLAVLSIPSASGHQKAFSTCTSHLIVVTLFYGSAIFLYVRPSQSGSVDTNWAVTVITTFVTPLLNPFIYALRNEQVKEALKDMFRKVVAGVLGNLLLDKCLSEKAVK
Method in brief: as §1

OR6T1 = test system: T7, OR6T1
T7 sequence (whole entry): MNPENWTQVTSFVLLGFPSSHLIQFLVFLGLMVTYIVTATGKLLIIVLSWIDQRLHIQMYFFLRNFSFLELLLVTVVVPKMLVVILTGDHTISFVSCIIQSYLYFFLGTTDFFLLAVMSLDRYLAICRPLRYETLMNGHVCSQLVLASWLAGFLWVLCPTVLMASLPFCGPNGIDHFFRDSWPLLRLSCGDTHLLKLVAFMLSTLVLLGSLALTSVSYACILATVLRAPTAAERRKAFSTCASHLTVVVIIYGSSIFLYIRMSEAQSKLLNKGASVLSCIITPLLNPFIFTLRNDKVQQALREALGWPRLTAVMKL
Method in brief: as §1

OR6N1 (Homo sapiens) = OR6N1 (Homo sapiens) (UniProt Q8NGY5)
Method in brief: as §1

OR6S1 (Homo sapiens) = OR6S1 (Homo sapiens) (UniProt Q8NH40)
Method in brief: as §1

OR6T1 (Homo sapiens) = OR6T1 (Homo sapiens) (UniProt Q8NGN1)
Method in brief: as §1

Measured: odorant receptor agonist call;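 further: active if original authors judged signal statistically different from baseline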

CC12C=CCC1C1CCC3=CC(=O)CCC3(C)C1CC2 (configuration not stated)
not listed: OR6N1 (Homo sapiens) | OR6S1 (Homo sapiens) | OR6T1 (Homo sapiens)
inactive: all other assays above

CC1=NC(C)SC1C (configuration not stated)
inactive: OR6M1 (Homo sapiens) | OR6N1 | OR6N2 (Homo sapiens) | OR6P1 (Homo sapiens) | OR6S1 | OR6T1

CCCCCCCCCCC=O
not listed: OR6N1 (Homo sapiens) | OR6S1 (Homo sapiens) | OR6T1 (Homo sapiens)
inactive: all other assays above

CCCCCOC(C)=O
inactive: OR6M1 (Homo sapiens) | OR6N1 | OR6N2 (Homo sapiens) | OR6P1 (Homo sapiens) | OR6S1 | OR6T1

CC(C)(O)CCCC1=CCC(C=O)CC1 (configuration not stated)
inactive: OR6P1 (Homo sapiens)

CCCCCCCC=CC=O
inactive: OR6M1 (Homo sapiens) | OR6Q1 (Homo sapiens) | OR6S1 | OR6T1
active: OR6N1 | OR6N2 (Homo sapiens) | OR6P1 (Homo sapiens)

CC1COCc2cc3c(cc21)C(C)(C)C(C)C3(C)C (configuration not stated)
active: OR6M1 (Homo sapiens) | OR6N1 | OR6N2 (Homo sapiens) | OR6S1
inactive: OR6P1 (Homo sapiens) | OR6Q1 (Homo sapiens) | OR6T1

CC(C)C=O
not listed: OR6N1 (Homo sapiens) | OR6S1 (Homo sapiens) | OR6T1 (Homo sapiens)
inactive: all other assays above

COC(=O)c1ccccc1
active: OR6P1 (Homo sapiens)
inactive: OR6M1 (Homo sapiens) | OR6N1 | OR6N2 (Homo sapiens) | OR6S1 | OR6T1

CCCCO
not listed: OR6N1 (Homo sapiens) | OR6S1 (Homo sapiens) | OR6T1 (Homo sapiens)
inactive: all other assays above

C=CCc1ccc(OC(C)=O)c(OC)c1
active: OR6T1
not listed: OR6N1 (Homo sapiens) | OR6S1 (Homo sapiens) | OR6T1 (Homo sapiens)
inactive: all other assays above

COc1cc(C=O)ccc1O
not listed: OR6N1 (Homo sapiens) | OR6S1 (Homo sapiens) | OR6T1 (Homo sapiens)
inactive: all other assays above

CCCCCCCC=O
not listed: OR6N1 (Homo sapiens) | OR6S1 (Homo sapiens) | OR6T1 (Homo sapiens)
inactive: all other assays above

CCCC(=O)O
not listed: OR6N1 (Homo sapiens) | OR6S1 (Homo sapiens) | OR6T1 (Homo sapiens)
inactive: all other assays above

CC12C=CCC1C1CCC3CC(=O)CCC3(C)C1CC2 (configuration not stated)
active: OR6T1
not listed: OR6M1 (Homo sapiens)
inactive: all other assays above

CC12CCC(C1)C(C)(C)C2=O (configuration not stated)
not listed: OR6N1 (Homo sapiens) | OR6S1 (Homo sapiens) | OR6T1 (Homo sapiens)
inactive: all other assays above

C=CCc1ccc(OC)c(OC)c1
not listed: OR6N1 (Homo sapiens) | OR6S1 (Homo sapiens) | OR6T1 (Homo sapiens)
inactive: all other assays above

CCCCCC(C)=O
inactive: OR6M1 (Homo sapiens) | OR6N1 | OR6N2 (Homo sapiens) | OR6P1 (Homo sapiens) | OR6S1 | OR6T1

CCCCCCOC(=O)CCC
not listed: OR6N1 (Homo sapiens) | OR6S1 (Homo sapiens) | OR6T1 (Homo sapiens)
inactive: all other assays above

CC(=O)c1ccccc1
inactive: OR6M1 (Homo sapiens) | OR6N1 | OR6N2 (Homo sapiens) | OR6P1 (Homo sapiens) | OR6T1
active: OR6S1

CC(=O)OC(C)(C)C1CC=C(C)CC1 (configuration not stated)
not listed: OR6N1 (Homo sapiens) | OR6S1 (Homo sapiens) | OR6T1 (Homo sapiens)
inactive: all other assays above

O=C1CCCCC1
inactive: OR6M1 (Homo sapiens) | OR6N1 | OR6N2 (Homo sapiens) | OR6P1 (Homo sapiens) | OR6S1 | OR6T1

COc1ccccc1O
not listed: OR6N1 (Homo sapiens) | OR6S1 (Homo sapiens) | OR6T1 (Homo sapiens)
inactive: all other assays above

CC(=O)OCC=C(C)CCC=C(C)C
not listed: OR6N1 (Homo sapiens) | OR6S1 (Homo sapiens) | OR6T1 (Homo sapiens)
inactive: all other assays above

CCC=CCCO
not listed: OR6N1 (Homo sapiens) | OR6S1 (Homo sapiens) | OR6T1 (Homo sapiens)
inactive: all other assays above

CC(=O)OC1CC2CCC1(C)C2(C)C (configuration not stated)
not listed: OR6N1 (Homo sapiens) | OR6S1 (Homo sapiens) | OR6T1 (Homo sapiens)
inactive: all other assays above
